Library screening results

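Whole-cell assay for inhibitors of Mycobacterium tuberculosis growth, labelled Cornell in the record; the read-out is not stated. The concentration is filed as 10 mM, unlikely as a test dose, so the dose is not known. Higher means stronger inhibition (inferred from two other growth screens of the library). Size under these conditions: about 53,000 compounds, about 900 of them at 50% or above in at least one test.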

Values are the deposited “Percent Effect”, in %. How 0% and 100% were set is not recorded. Most values in the screen are low, and negative values occur. This is an unselected part of the compounds tested.

Result for O=C(Nc1ccc(OC(F)F)cc1)N1CCC(c2nnc[nH]2)CC1 was -34.35%.
Result for Cc1nc(-c2cccc(C(=O)N(C)C)c2)cs1 was 8.541%.
Result for CCN1CC2(CCN(C(=O)C(C)Oc3cccc(Cl)c3)CC2)OC1=O (stereo not drawn) was 18.23%.
Result for CCOc1ncccc1CNC(=O)N1CCCC1c1ccncc1 (stereo not drawn) was 13.56%.
Result for O=S(=O)(N1CCCCCC1)N1CCc2sccc2C1 was 42.01%.
Result for COc1c(CNCc2ccccc2CN2CCOCC2)c(C)nn1C was 9.005%.
Result for Cc1cc(C)n(CC2CCCN2CCCc2nc3ccccc3o2)n1 (stereo not drawn) was 14.18%.
Result for COc1ccc(OCC(=O)NC(C)c2ccc(F)cc2)c(C(=O)O)c1 (stereo not drawn) was 37.88%.
Result for Cc1nn(C)c(Cl)c1C1CCCN1Cc1ccccn1 (stereo not drawn) was -0.5461%.
Result for CC(=O)N1N=C(Cc2ccccc2)OC1C(=O)NCC(=O)OC(C)(C)C (stereo not drawn) was -2.202%.
Result for CN(CCc1ccccn1)C(=O)Cn1cc(-c2ccccc2)nn1 was 8.941%.
Result for COc1cc(C(=O)N2Cc3cnc(C(C)(C)C)nc3C2)ccn1 was 13.81%.
Result for Cc1[nH]c(=O)c(C#N)cc1C(=O)N1C[C@@H](CN2CCCC2)C[C@H](CO)C1 was 23.95%.
Result for COCC1CC2(CCN(c3cccc(C)n3)CC2)CN1c1ncccn1.O=C(O)C(F)(F)F (stereo not drawn) was -0.5323%.
Result for Cn1ccc2c(C(=O)NC3CN4CCC3CC4)cccc21 (stereo not drawn) was 6.004%.
Result for CCCNC(=O)N1CCCC2(CCC(=O)N(CCc3c[nH]cn3)C2)C1 (stereo not drawn) was -28.1%.
Result for COc1ccc(CC2CN(C(=O)c3coc(C)n3)CCO2)cc1 (stereo not drawn) was -15.35%.
Result for Cc1cc(C)c2c(c1)C(CC(=O)O)C(=O)N2 (stereo not drawn) was -23.51%.
Result for Cc1nc(CN2CC3(CCN(c4ncccn4)C3)CC2=O)cs1.O=C(O)C(F)(F)F (stereo not drawn) was 8.125%.
Result for Cc1nc2c(c(NC(C)C)n1)CCN(Cc1cccnc1)CC2.O=C(O)C(F)(F)F.O=C(O)C(F)(F)F was 1.774%.
Result for Cn1cc(CN2CCC3(CC(=O)N(c4ccc5c(c4)OCO5)C3)C2)cn1.O=C(O)C(F)(F)F (stereo not drawn) was 5.939%.
Result for Cc1cc(C(=O)NCc2cccn2C)nn1C was 24.67%.
Result for [H][C@@]12C[C@H](C(=O)NC3CCC3)[C@@]([H])(CN(S(=O)(=O)c3ccccc3)C1)O2 was 25.23%.
Result for Cc1cnn(CCC(=O)N2CCCC(c3cc(C(N)=O)[nH]n3)C2)c1 (stereo not drawn) was -1.261%.
Result for CCn1nc(C)c2ncnc(N(C)C)c21 was -48.95%.
Result for Fc1cccc(-n2cc(CN3CCCCC3CCn3ccnc3)cn2)c1 (stereo not drawn) was 2.742%.
Result for COCCN(Cc1ccoc1)S(=O)(=O)c1ccc(OC)c(Cl)c1 was 25.04%.
Result for CCn1nnc2c1CCN(S(C)(=O)=O)C2COCc1ccccc1 (stereo not drawn) was 9.369%.
Result for Cn1ncc2c(=O)[nH]c(N3CCN(C(=O)c4ccsc4)CC3)nc21 was -20.18%.
Result for Cc1cc2cc(CNC3CCN(CC(=O)N(C)C)CC3)oc2cc1C was -27.66%.
Result for O=C(Cn1[nH]c2ccccc2c1=O)N1CCCC(CC2CC2)(C(=O)O)C1 (stereo not drawn) was 12.99%.
Result for COCCN1CCN(c2cccc(C)n2)Cc2ccc(C)nc21.O=C(O)C(F)(F)F.O=C(O)C(F)(F)F was -8.079%.
Result for [H][C@@]12CO[C@@H](CNS(C)(=O)=O)[C@]1([H])CCN(C(=O)c1ccccc1)C2 was -58.42%.
Result for Cn1cc(CN2CC3(CCN(C(=O)c4ccoc4)C3)C2)cn1 was 24.87%.

For reference, 3 entries once more:

| SMILES | effect |
|---|---|
| `CN(CCc1ccccn1)C(=O)Cn1cc(-c2ccccc2)nn1` | 8.941 |
| `COc1ccc(CC2CN(C(=O)c3coc(C)n3)CCO2)cc1` (stereo not drawn) | -15.35 |
| `CCOc1ncccc1CNC(=O)N1CCCC1c1ccncc1` (stereo not drawn) | 13.56 |

Measurements from “University of Dundee, Small-Polar-MMV Screening Library” (2021), ChEMBL document CHEMBL3988442.